Article doi:10.1101/2022.09.12.507573

Sequences of proteins named here, by UniProt entry; tags and fusion partners are left off. A change or cut given only in a name is not applied to a line headed by its entry.
UniProt P60953: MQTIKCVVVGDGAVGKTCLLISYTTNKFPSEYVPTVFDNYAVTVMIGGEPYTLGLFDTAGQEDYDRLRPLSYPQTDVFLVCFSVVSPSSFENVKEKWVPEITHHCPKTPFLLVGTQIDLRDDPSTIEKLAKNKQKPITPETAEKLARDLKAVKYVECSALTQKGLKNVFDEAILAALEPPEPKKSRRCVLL
UniProt P61586: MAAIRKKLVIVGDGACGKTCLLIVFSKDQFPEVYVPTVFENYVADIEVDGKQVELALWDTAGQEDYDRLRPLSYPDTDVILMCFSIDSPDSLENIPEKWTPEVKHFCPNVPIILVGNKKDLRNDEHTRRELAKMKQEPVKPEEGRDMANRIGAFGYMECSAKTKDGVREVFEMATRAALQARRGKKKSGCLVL
UniProt Q13153: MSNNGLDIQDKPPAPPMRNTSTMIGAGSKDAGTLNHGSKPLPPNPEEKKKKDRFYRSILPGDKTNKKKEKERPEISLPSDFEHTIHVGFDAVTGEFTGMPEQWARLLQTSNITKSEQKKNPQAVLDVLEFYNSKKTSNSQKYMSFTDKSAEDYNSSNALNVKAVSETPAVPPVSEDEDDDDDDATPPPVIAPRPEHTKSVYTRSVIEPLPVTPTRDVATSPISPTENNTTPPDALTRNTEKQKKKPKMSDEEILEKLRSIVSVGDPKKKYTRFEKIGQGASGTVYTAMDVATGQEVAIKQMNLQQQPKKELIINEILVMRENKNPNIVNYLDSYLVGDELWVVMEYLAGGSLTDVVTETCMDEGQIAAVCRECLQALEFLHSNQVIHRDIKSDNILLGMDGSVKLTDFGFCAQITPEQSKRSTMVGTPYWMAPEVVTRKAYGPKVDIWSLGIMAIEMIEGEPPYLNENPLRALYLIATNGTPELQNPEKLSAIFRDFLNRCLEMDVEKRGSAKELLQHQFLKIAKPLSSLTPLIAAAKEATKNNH
UniProt P42768: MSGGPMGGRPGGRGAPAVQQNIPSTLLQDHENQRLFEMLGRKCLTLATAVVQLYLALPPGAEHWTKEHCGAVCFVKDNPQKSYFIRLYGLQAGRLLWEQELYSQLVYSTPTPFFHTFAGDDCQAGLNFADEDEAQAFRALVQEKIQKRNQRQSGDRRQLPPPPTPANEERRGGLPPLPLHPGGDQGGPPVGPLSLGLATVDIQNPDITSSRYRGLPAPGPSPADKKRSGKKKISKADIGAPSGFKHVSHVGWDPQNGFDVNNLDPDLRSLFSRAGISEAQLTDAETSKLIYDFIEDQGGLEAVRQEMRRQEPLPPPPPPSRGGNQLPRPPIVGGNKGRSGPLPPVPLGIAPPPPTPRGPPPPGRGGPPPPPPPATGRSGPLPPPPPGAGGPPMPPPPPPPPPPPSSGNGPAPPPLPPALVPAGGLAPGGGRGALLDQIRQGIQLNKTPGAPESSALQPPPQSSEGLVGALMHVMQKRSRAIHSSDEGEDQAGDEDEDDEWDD
UniProt O00401: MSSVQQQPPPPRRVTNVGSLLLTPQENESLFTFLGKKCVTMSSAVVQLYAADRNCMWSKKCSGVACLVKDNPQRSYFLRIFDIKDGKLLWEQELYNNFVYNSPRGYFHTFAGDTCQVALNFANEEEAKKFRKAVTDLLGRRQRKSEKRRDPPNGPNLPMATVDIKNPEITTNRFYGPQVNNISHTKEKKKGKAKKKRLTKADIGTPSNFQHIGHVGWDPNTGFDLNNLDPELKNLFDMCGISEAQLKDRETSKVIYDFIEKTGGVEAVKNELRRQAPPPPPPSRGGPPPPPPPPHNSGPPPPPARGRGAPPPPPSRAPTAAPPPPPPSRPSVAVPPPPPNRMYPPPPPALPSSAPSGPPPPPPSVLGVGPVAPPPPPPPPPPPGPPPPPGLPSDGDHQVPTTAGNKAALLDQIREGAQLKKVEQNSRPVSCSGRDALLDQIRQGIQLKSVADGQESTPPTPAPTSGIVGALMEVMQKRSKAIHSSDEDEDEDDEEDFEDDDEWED
UniProt O96013: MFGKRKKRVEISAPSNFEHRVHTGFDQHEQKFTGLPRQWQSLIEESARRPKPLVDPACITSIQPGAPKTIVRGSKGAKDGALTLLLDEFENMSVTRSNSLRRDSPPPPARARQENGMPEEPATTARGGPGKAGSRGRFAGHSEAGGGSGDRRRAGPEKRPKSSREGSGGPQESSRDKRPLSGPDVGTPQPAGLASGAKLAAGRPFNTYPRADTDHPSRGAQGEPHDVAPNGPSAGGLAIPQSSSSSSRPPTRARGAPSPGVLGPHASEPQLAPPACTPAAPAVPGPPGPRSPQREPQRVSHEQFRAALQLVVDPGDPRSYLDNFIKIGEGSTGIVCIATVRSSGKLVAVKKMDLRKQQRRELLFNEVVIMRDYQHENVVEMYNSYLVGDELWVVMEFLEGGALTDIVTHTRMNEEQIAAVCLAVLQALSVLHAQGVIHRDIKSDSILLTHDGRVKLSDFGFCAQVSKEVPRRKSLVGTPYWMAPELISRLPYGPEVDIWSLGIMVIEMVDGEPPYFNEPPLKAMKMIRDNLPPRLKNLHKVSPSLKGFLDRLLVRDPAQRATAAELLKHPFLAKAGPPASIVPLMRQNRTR
UniProt Q07912: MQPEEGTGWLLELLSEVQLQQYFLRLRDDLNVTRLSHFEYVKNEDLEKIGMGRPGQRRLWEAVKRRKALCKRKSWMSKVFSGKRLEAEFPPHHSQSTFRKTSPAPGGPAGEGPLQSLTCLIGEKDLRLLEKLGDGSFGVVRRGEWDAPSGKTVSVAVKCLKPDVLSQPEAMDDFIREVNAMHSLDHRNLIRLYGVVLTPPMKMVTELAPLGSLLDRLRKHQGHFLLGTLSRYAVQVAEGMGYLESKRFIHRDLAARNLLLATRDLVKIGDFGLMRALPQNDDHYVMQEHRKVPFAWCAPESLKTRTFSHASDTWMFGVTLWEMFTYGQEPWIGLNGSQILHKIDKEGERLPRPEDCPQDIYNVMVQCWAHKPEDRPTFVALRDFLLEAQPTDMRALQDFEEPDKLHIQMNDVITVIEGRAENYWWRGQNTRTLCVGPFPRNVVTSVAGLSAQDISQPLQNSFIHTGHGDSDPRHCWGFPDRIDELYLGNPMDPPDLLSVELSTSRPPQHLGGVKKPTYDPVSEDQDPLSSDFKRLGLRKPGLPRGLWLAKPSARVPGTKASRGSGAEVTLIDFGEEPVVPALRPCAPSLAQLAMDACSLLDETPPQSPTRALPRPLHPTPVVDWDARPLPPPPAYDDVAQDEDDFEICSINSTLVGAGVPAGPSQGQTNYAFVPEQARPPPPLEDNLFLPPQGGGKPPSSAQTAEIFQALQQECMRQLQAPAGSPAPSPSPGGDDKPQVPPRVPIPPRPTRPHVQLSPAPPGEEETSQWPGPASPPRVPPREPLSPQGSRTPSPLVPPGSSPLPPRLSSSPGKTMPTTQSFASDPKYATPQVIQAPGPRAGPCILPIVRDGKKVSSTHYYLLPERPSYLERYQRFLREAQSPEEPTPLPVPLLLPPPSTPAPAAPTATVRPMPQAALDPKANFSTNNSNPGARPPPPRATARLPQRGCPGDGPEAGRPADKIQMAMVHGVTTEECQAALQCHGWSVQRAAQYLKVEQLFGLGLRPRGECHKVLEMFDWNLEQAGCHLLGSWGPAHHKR

Tests used:
[1] = target: H2A-mTurquoise2-Cdc42(G12V)-ΔCaaX (UniProt P60953)
[2] = target: TOMM20-mTurquoise2-Cdc42(G12V)-ΔCaaX (UniProt P60953)
[3] = target: TOMM20-mTurquoise2-Cdc42(G12V)-ΔCaaX (UniProt P60953); remark: listed apart in the source
[4] = target: H2A-mTurquoise2-RhoA(G14V)-ΔCaaX (UniProt P61586)

Row | binding [1] | binding [2] | binding [3] | binding [4] | Molecule
1 | binds | binds | binds | – | mScarlet-I-Pak1(CRIB) (from UniProt Q13153 75-88) (domain or fragment)
2 | binds | binds | binds | – | mScarlet-I-WASp(CRIB) (from UniProt P42768 238-251) (domain or fragment)
3 | – | – | binds | – | mScarlet-I-WASp (full length WASp) (from UniProt P42768 1-502)
4 | binds | binds | – | – | IGTPSNFQHIGHVG (domain or fragment, UniProt O00401 203-216) [mScarlet-I-N-WASP(CRIB)]

The next lines start with the molecule.

Row | Molecule | binding [1] | binding [2] | binding [3] | binding [4]
5 | dimericTomato-WASp(CRIB) (from UniProt P42768 238-251) (domain or fragment) | – | – | – | no binding
6 | ISAPSNFEHRVHTG (domain or fragment, UniProt O96013 11-24) [mScarlet-I-Pak4(CRIB)] | binds | binds | – | –
7 | ISQPLQNSFIHTG (domain or fragment, UniProt Q07912 454-466) [mScarlet-I-TNK2(CRIB)] | binds | binds | – | –

Like-named read-outs stand apart in the source and are kept apart here. Results are given in words; binding and its absence hold for the method and conditions named. For some assays here: Binding calls can cover weak binding; strength is not graded here.
